Values of other authors, collected in patent US5534654A, “Aromatic-sulfonamide-type hydroxamic acid derivative” (Shionogi & Co., Ltd., priority 1991, dated 1996).
At least one compound was matched to its structure with a doubt left.

System: transformed NIH 3T3 cells (ras gene activated by mutation of No. 61 amino acid glutamine to leucine)
Conditions: cited from earlier work

Question: Which results are given for `NC(Cc1ccc(O)cn1)C(=O)O` (centres unmarked) [azatyrosine]?
Answer: transformed cells converted into flat revertant cells (after administration of azatyrosin, Cancer and Chemotherapy 17(3) part II, 500-501, 1990): about 85%; growth of the transformed cells (normal and ras-transformed NIH 3T3 cells): the growth of the transformed cells is specifically inhibited
